This is an account of results in paper PMC545799.

The chains behind the UniProt entries cited, without tags or fusion partners.
UniProt P23573: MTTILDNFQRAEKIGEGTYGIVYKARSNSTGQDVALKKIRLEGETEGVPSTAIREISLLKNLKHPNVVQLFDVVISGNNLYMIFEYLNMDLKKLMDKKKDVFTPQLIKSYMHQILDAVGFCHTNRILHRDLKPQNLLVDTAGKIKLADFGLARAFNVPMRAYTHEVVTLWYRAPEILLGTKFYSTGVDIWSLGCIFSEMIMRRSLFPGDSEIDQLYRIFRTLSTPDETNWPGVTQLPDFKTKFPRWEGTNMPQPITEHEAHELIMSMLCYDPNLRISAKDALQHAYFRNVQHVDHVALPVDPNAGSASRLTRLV
UniProt P23572: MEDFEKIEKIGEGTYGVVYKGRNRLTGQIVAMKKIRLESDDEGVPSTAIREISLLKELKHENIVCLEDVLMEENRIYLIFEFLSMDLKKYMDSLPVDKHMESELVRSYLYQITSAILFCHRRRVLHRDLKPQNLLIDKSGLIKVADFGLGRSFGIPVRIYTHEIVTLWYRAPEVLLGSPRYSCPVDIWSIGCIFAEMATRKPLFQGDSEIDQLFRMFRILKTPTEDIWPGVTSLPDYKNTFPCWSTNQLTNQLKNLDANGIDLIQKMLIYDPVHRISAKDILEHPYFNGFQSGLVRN

In experiment [1] the target is Cdc2c (Drosophila melanogaster) (UniProt P23573). The experiment is described as follows: two-hybrid; LexA-based yeast two-hybrid: LexA BD fusions (pHZ5-NRT, strain Y309) mated with B42 AD fusions (pJZ4-NRT, strain RFY231); pooled mating in two phases and library screening; LEU2 (growth without leucine, 0-3) and lacZ (X-Gal, 0-5) reporters on galactose and maltose medium, 30°C; interactions re-tested one-on-one.

Experiment [2] has as its target Cdc2 (Drosophila melanogaster) (UniProt P23572). The description is as above.

Results are given in words; binding and its absence hold for the method and conditions named. A result given as binding can be weak or reduced; the word gives no strength.

Regarding CG9790 (from UniProt Q9VHN1), the binding entry in experiment [1] and in experiment [2] was “binds” each time.
